Experiment [1] addresses FLAG-SKP2 (recombinant, purified) (UniProt Q13309). In words: pull-down; recombinant purified GST or GST-Moesin incubated with Ni-NTA bead-bound FLAG-SKP2 for 2 h at room temperature, beads washed, eluted with SDS buffer, immunoblot; both purified. A general note: A western blot detects proteins with antibodies after separation by electrophoresis.
A further experiment addresses T1, His-FBXW2 (recombinant) (UniProt Q9UKT8).
T1 sequence: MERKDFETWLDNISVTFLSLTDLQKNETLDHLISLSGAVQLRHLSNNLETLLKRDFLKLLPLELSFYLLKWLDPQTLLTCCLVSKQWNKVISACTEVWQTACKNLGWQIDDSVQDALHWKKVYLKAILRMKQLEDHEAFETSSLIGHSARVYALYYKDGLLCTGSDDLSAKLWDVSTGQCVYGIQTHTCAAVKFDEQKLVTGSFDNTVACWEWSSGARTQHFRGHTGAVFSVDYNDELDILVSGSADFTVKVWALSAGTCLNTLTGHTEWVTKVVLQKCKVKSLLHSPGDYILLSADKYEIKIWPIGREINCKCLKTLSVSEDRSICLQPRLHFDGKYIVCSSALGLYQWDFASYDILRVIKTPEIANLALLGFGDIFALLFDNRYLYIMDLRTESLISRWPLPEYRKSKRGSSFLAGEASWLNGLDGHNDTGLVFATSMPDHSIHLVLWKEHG
In words: pull-down; Ni-NTA bead-bound His-FBXW2 incubated with purified GST or GST-Moesin (methods: 6 h at 4 °C; legend: 2 h at room temperature), washed with IP lysis buffer, eluted with SDS buffer, immunoblot; both purified.

By UniProt entry, the sequences of proteins in these tests, tags left out.
UniProt Q13309: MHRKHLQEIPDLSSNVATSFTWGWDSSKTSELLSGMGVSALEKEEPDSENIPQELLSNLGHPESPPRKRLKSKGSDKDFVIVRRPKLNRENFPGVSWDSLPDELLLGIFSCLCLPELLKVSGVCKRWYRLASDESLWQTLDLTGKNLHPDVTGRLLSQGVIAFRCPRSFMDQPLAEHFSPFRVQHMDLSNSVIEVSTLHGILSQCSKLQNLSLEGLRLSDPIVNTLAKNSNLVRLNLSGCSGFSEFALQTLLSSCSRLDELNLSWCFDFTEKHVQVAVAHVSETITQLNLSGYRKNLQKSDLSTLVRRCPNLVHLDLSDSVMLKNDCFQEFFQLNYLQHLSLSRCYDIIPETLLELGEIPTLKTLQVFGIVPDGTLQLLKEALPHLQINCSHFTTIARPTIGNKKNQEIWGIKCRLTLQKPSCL
UniProt P26038: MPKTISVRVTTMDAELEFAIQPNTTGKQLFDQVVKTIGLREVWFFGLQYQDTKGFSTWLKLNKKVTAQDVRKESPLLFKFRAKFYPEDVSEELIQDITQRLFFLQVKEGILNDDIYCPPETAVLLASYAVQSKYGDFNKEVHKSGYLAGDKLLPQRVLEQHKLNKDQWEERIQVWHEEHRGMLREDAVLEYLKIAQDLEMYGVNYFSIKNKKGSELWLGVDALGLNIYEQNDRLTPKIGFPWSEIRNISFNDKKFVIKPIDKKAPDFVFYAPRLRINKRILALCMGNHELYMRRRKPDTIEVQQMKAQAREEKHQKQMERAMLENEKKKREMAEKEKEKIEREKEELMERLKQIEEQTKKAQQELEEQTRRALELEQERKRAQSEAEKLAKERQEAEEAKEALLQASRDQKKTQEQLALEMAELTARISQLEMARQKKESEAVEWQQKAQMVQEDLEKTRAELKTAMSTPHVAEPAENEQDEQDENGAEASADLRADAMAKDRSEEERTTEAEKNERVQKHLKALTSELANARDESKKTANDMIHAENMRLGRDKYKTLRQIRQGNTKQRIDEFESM

For another experiment, the target named is T2, FLAG-FBXW2, full length (UniProt Q9UKT8).
T2 sequence: T1 sequence
In words: co-IP; MCF7 cells transfected with vector, FLAG-FL-FBXW2 or FLAG-∆F-FBXW2 36 h, 5 µM MG132 6 h; anti-FLAG immunoprecipitation, immunoblot (Fig. 4E); also FLAG-FBXW2 with or without 5 µM AKT inhibitor 12 h or AKT silencing (Fig. 6D).

Experiment [2] addresses SKP2, endogenous (human (endogenous in MCF7)) (UniProt Q13309). Put plainly: co-IP; endogenous proteins; MCF7 whole-cell lysates immunoprecipitated with anti-IgG or anti-SKP2 antibody, immunoblot.
Experiment [3] has as its target T3, F-box and WD repeat-containing protein 2 (FBXW2), endogenous (human (endogenous in MCF7 and MDA-MB-231)) (UniProt Q9UKT8).
T3 sequence: T1 sequence
In words: co-IP; endogenous proteins; MCF7 (and MDA-MB-231) whole-cell lysates immunoprecipitated with anti-IgG or anti-FBXW2 antibody, immunoblot.

These are yes or no findings as the source states them, for the method shown. For some assays here: Binding seen in cells or lysates may run through a third protein. Some binding calls cover weakened binding; strength is not graded here. For some assays here: Where a sequence is shown, tags or fusion partners need not be part of it.

The results in this text go back to publication PMC10517019.

Take “GST-Moesin (recombinant) (from UniProt P26038 1-577)”: the binding result (in experiment [1]; in the experiment with His-FBXW2 (recombinant)) was “binds” in each case.

As for “Membrane-organizing extension spike protein (Moesin), endogenous (from UniProt P26038 1-577)”, the binding entry with FLAG-FBXW2, full length is given as “binds”; in experiment [2] it was “binds”; in experiment [3], “binds”.
